Data reported in US20230248833A1, “COMPOUND HAVING BTK KINASE DEGRADING ACTIVITY, AND PREPARATION METHOD AND PHARMACEUTICAL USE THEREFOR” (SICHUAN HAISCO PHARMACEUTICAL CO., LTD., priority 2020, published 2023).
For some of these results: The name of at least one read-out is uncertain. Some of these results come from one statement about several compounds together. Some compounds share one range, which may span the group rather than tell each member.

Assays:
SU-DHL-6 cells = experiment: Inhibition of cell proliferation, SU-DHL-6 cells (Cell Viability Assay, 72 h); assay type: cell-based, human
Experimental: (§1) SU-DHL-4, Mino, and SU-DHL-6 cells, in the culture medium of RPMI1640+10% FBS, were cultured in an incubator at 37° C. under 5% CO2. Cells were plated in a 96-well plate. Specifically, SU-DHL-4 cells were at 20000/well, Mino and SU-DHL-6 cells were at 5000/well, with 90 μL/well. 10 μL of the compounds at different concentrations were added to each well. There were 3 replicate wells for each concentration, and the last column, added with DMSO, was used as a vehicle control group. The cultures were continued for 72 hours at 37° C. under 5% CO2. After 72 hours, 100 μL of detection reagent (Cell Viability Assay, Promega, G7573) was added to each well, and the cultures were uniformly mixed for 2 minutes, and incubated at room temperature for 10 minutes. The […] signal value was measured with a microplate reader (PHERAstar FSX). The IC50 value of the compound on cell proliferation inhibition was calculated using origin9.2 software, and the inhibition rate at the highest concentration of the compound (Max inhi.%) was calculated according to formula (1).
(§2) Max inhi.%=(1−T72administration/T72vehicle)×100 Formula (1).

Mino cells = experiment: Inhibition of cell proliferation, Mino cells (Cell Viability Assay, 72 h); assay type: cell-based, human; conditions: for Mino Max inhi. %: inhibition rate at the highest concentration of the compound
Experimental: as §1, §2

[1] = listed as trifluoroacetate of 107
[2] = listed as trifluoroacetate of 109

For `Nc1ncnc2c1c(-c1ccc(Oc3ccccc3)cc1)nn2C1CCN(C2CN(CC3CN(c4ccc5c(c4)C(=O)N(C4CCC(=O)NC4=O)C5=O)C3)C2)CC1` (stereo not shown) [Compound 85, 5-(3-((3-(4-(4-amino-3-(4-phenoxyphenyl)-1H-pyrazolo[3,4-d]pyrimidin-1-yl)piperidin-1-yl)azetidin-1-yl)methyl)azetidin-1-yl)-2-(2,6-dioxopiperidin-3-yl)isoindoline-1,3-dione], the IC50 (SU-DHL-6 cells; listed as compound 85) was 0.01 to 1 µM.

`Nc1ncnc2c1c(-c1ccc(Oc3ccccc3)cc1)nn2C1CCN(C2CC3(CCN(C(=O)CC45CC6CC(CC(C6)C4)C5)CC3)C2)CC1` [Trifluoroacetate of compound 71, 2-((3r,5r,7r)-adamantan-1-yl)-1-(2-(4-(4-amino-3-(4-phenoxyphenyl)-1H-pyrazolo[3,4-d]pyrimidin-1-yl)piperidin-1-yl)-7-azaspiro[3.5]nonan-7-yl)ethan-1-one] was tested, and the “Mino Max inhi. %” value (Mino cells) was 95.2% and the “Mino Max inhi. %” value (Mino cells; listed as trifluoroacetate of 71) was “higher than 80%”.

Compound `Nc1ncnc2c1c(-c1ccc(Oc3ccccc3)cc1)nn2C1CCN(C2CN(CC3CN(c4ccc5c(c4)CN(C4CCC(=O)NC4=O)C5=O)C3)C2)CC1` (stereo not shown) [Trifluoroacetate of compound 107, 3-(5-(3-((3-(4-(4-amino-3-(4-phenoxyphenyl)-1H-pyrazolo[3,4-d]pyrimidin-1-yl)piperidin-1-yl)azetidin-1-yl)methyl)azetidin-1-yl)-1-oxoisoindolin-2-yl)piperidine-2,6-dione] has an IC50 (SU-DHL-6 cells; [1]) of 0.01 to 1 µM and an IC50 (Mino cells; [1]) of 0.01 to 1 µM.

With `Nc1ncnc2c1c(-c1ccc(Oc3ccccc3)cc1)nn2C1CCN(C2CN(CC3CN(Cc4ccc5c(c4)C(=O)N(C4CCC(=O)NC4=O)C5=O)C3)C2)CC1` (stereo not shown) [Trifluoroacetate of compound 109, 5-((3-((3-(4-(4-amino-3-(4-phenoxyphenyl)-1H-pyrazolo[3,4-d]pyrimidin-1-yl)piperidin-1-yl)azetidin-1-yl)methyl)azetidin-1-yl)methyl)-2-(2,6-dioxopiperidin-3-yl)isoindoline-1,3-dione] the IC50 (SU-DHL-6 cells; [2]) was 0.01 to 1 µM and the IC50 (Mino cells; [2]) was 0.01 to 1 µM.
